Measured values published in the supplement of paper PMC3334620.
Over roughly 33,000 sequences, “E-score (-0.5 to 0.5)” has its median near -0.0059; the highest 2% begin near 0.26. The list shows a part of the results.

The sequences below were run against T1, Cin5 (UniProt P40917) (assay: PBM E-score (8-mer binding enrichment) (E-score (-0.5 to 0.5)); higher = stronger / more preferred TF binding). Settings: protein concentration: 100 nM; construct: GST-full length.
T1 sequence: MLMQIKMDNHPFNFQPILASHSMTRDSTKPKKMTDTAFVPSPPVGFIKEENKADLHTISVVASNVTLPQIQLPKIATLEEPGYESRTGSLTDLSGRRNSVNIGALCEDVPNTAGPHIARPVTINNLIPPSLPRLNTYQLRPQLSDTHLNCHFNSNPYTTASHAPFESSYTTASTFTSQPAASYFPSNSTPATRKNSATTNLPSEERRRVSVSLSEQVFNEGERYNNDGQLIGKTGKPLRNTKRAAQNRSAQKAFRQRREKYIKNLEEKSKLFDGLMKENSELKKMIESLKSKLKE
Method: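 Universal 'all 10-mer' protein binding microarrays (Agilent AMADID 015681) probed with GST-tagged S. cerevisiae TFs (full-length or DBD) made by in vitro transcription/translation (PURExpress), about 100-200 nM. Bound TF was detected with fluorescent anti-GST. Each ungapped 8-mer (which stands for itself and its reverse complement) is scored by the PBM enrichment score (E-score), a modified Wilcoxon-Mann-Whitney statistic from -0.5 to +0.5, computed with the Universal PBM Analysis Suite. Scale: above 0.35 generally sequence-specific binding.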
AGGCCGCG was tested, and the “PBM E-score” value was -0.161. For CAAACTCG, the “PBM E-score” value was 0.0562. With ATTCGCAC the “PBM E-score” value was -0.0442. For CGTTAGAC, the “PBM E-score” value was -0.168. With GATAGAGA the “PBM E-score” value was -0.0355. In the case of ACCGGAAT, the “PBM E-score” value is reported as 0.0498. For CAAATGAG, the “PBM E-score” value was -0.025. GAACGGAA was tested, and the “PBM E-score” value was 0.176. TATATAGA was tested, and the “PBM E-score” value was 0.238. With AGGTGCGG the “PBM E-score” value was -0.0579. In the case of AAGACAGA, the “PBM E-score” value is reported as 0.195. AAACATTT was tested, and the “PBM E-score” value was 0.175. In the case of GGTGCACA, the “PBM E-score” value is reported as -0.189. With ATCGAAAG the “PBM E-score” value was 0.161. With GTTCGAAC the “PBM E-score” value was 0.139. ATGCTCTC was tested, and the “PBM E-score” value was -0.0579. With ACGTGGCG the “PBM E-score” value was -0.0905. In the case of CTTAAGGA, the “PBM E-score” value is reported as -0.102. CTACGGGA was tested, and the “PBM E-score” value was -0.0722. In the case of ATACCCGC, the “PBM E-score” value is reported as 0.155. In the case of AGTCGAAG, the “PBM E-score” value is reported as -0.101. In the case of ACCTCGCT, the “PBM E-score” value is reported as -0.0349. For CCTATTTA, the “PBM E-score” value was 0.106. With ACCGCACT the “PBM E-score” value was 0.0106. With AGGAACCC the “PBM E-score” value was -0.106. With AATAACAG the “PBM E-score” value was 0.119. CAACAGGA was tested, and the “PBM E-score” value was -0.121. GCGGCACC was tested, and the “PBM E-score” value was -0.044. For CTGACCCA, the “PBM E-score” value was -0.153. For CGCTCTTA, the “PBM E-score” value was 0.138. In the case of CCCGTTGC, the “PBM E-score” value is reported as -0.244. For GCTGCGAC, the “PBM E-score” value was -0.124. With GCAAGTTA the “PBM E-score” value was 0.155. In the case of TGTGCACA, the “PBM E-score” value is reported as -0.259. ATACGACG was tested, and the “PBM E-score” value was 0.106. For CAACGTAG, the “PBM E-score” value was -0.0703. With CCGTTAGA the “PBM E-score” value was -0.0155. GCAGACGA was tested, and the “PBM E-score” value was -0.0111. AAGTTAGC was tested, and the “PBM E-score” value was 0.138. ATATTCCG was tested, and the “PBM E-score” value was 0.179. For CGCGGAGC, the “PBM E-score” value was -0.0803. In the case of GGTTTGAA, the “PBM E-score” value is reported as 0.139. For CATAGTGC, the “PBM E-score” value was 0.0103. For ACACCCGT, the “PBM E-score” value was -0.0661. In the case of GTCCGAAA, the “PBM E-score” value is reported as 0.0489. For CGCAAGGA, the “PBM E-score” value was 0.0484. In the case of GGGCTATA, the “PBM E-score” value is reported as -0.104. For AGTGTGTC, the “PBM E-score” value was -0.0087. For CGAACAAG, the “PBM E-score” value was -0.0215. For ATTAGAGA, the “PBM E-score” value was -0.0518. For GCATGATA, the “PBM E-score” value was 0.168. In the case of CCAGTCAG, the “PBM E-score” value is reported as -0.087. ACCACTAA was tested, and the “PBM E-score” value was 0.221. For ACGACAAT, the “PBM E-score” value was 0.147. For AAGGTGGT, the “PBM E-score” value was -0.0395. In the case of CTCACGAA, the “PBM E-score” value is reported as 0.0615. AGGAGGGG was tested, and the “PBM E-score” value was -0.0529. In the case of AACTCGCA, the “PBM E-score” value is reported as -0.0127. For GCACATTA, the “PBM E-score” value was 0.0664. AAATTGAA was tested, and the “PBM E-score” value was 0.105. For CCTAGCCA, the “PBM E-score” value was -0.199. In the case of ATATGGGA, the “PBM E-score” value is reported as 0.131. With AAGAGAAC the “PBM E-score” value was -0.0311. For CAAAGAAG, the “PBM E-score” value was -0.00102. For CCATGGAG, the “PBM E-score” value was -0.0771. In the case of GACAGCAC, the “PBM E-score” value is reported as 0.0627. For GACAGAAA, the “PBM E-score” value was 0.116. For AGCGGGTC, the “PBM E-score” value was -0.239. GTGCCGAA was tested, and the “PBM E-score” value was -0.12. With AGGCAGGA the “PBM E-score” value was -0.0428. CGCAGCAG was tested, and the “PBM E-score” value was -0.103. AAGAACAG was tested, and the “PBM E-score” value was 0.0572. For AGTTGTAC, the “PBM E-score” value was 0.0071. For CGAGAGTC, the “PBM E-score” value was -0.265. With AAGGAAAT the “PBM E-score” value was 0.0752. With CGGCTTAC the “PBM E-score” value was 0.358. In the case of ATCTGTCC, the “PBM E-score” value is reported as 0.00845. In the case of ACTCCTCT, the “PBM E-score” value is reported as -0.133. In the case of CTATTCTC, the “PBM E-score” value is reported as 0.0935. CATACTAA was tested, and the “PBM E-score” value was 0.154. For CTGGGCAC, the “PBM E-score” value was -0.178. For ACTGATAA, the “PBM E-score” value was 0.182. For CCGACGTC, the “PBM E-score” value was -0.0456. TAGAGATA was tested, and the “PBM E-score” value was 0.0496. For ACACTTAA, the “PBM E-score” value was 0.0701. In the case of AACCCCGT, the “PBM E-score” value is reported as 0.0797.
